Some of these results come from one statement about several compounds together.
Assay: Solubility statements in the description
Conditions: depends on the pH in aqueous environments

CC(C)COc1ccc(CNC(=O)N(Cc2ccc(F)cc2)C2CCN(C)CC2)cc1 [Form A, N-(4-fluorobenzyl)-N-(1-methylpiperidin-4-yl)-N′-(4-(2-methylpropyloxy)phenylmethyl)carbamide hemi-tartrate]
aqueous solubility: greater than 200 mg/ml

CC(C)COc1ccc(CNC(=O)N(Cc2ccc(F)cc2)C2CCN(C)CC2)cc1 [Form B, N-(4-fluorobenzyl)-N-(1-methylpiperidin-4-yl)-N′-(4-(2-methylpropyloxy)phenylmethyl)carbamide hemi-tartrate]
aqueous solubility: greater than 200 mg/ml

CC(C)COc1ccc(CNC(=O)N(Cc2ccc(F)cc2)C2CCN(C)CC2)cc1 [Form D, N-(4-fluorobenzyl)-N-(1-methylpiperidin-4-yl)-N′-(4-(2-methylpropyloxy)phenylmethyl)carbamide hemi-tartrate]
aqueous solubility: greater than 200 mg/ml

Source: patent US7790899B2, “Synthesis of N-(4-fluorobenzyl)-N-(1-methylpiperidin-4-yl)-N′-(4-(2-methylpropyloxy)phenylmethyl)carbamide and its tartrate salt and crystalline forms” (ACADIA Pharmaceuticals, Inc., priority 2004, dated 2010)
